# Experimental data as given in PubChem BioAssay AID651640 (Broad Institute, 2012).
# About 6,000 (1.7%) of roughly 350,000 compounds were called active. The shares of active, inactive and inconclusive entries below differ from those in the screen. No stated cut-off is given here; in the data, active means CPE inhibition above about 20% (passing the limit was not always enough); inconclusive means no clear call, values can overlap the other calls; tested in BHK-21 cells.
# Assay: protection of cells from dengue 2 killing – plate reader, single concentration, primary screen (AID 651640);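 further: 0% = median of neutral control wells and 100% = median of positive control wells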
# Conditions: DENV2-infected cells, cytopathic effect rescue, at 9.99 µM, hits give high values
row,SMILES,CPE inhibition
1,O=S(=O)(CS(=O)(=O)c1ccc(Br)cc1)c1ccc(Br)cc1,inconclusive: 46%
2,CCCOc1ccc(N/C=C/C(=O)c2ccc(OC)c(OC)c2)cc1,inconclusive: 26.8%
3,COc1cc(NC(=S)NCCc2ccccc2)c(OC)cc1NC(=O)C(C)C,inconclusive: 22.4%
4,COc1ccc(S(=O)(=O)Nc2ccc3c(c2)C(=O)N([C@H](C)CO)C[C@H](C)[C@@H](CN(C)C(=O)Nc2ccccc2)OCCCC[C@@H](C)O3)cc1,inconclusive: 20.7%
5,CNC(=O)COc1coc(CN2CCN(C(=O)c3ccco3)CC2)cc1=O,inconclusive: 24.1%
6,COc1ccc2c3c([nH]c2c1)[C@@H](CO)N(C(=O)NC(C)C)CC31CCN(C(=O)NC2CCCC2)CC1,inactive: -0.517%
7,COc1cc(/C=C2/SC(=O)N(CC(=O)N3CCCC3)C2=O)ccc1Oc1ccc([N+](=O)[O-])cn1,inactive: 1.65%
8,COc1cc(SC)ccc1C(=O)Nc1cccc(S(=O)(=O)NC2=NCCC2)c1,inconclusive: 43.2%
9,Cc1ccc(S(=O)(=O)Nc2ccc3c(c2)C(=O)N([C@@H](C)CO)C[C@@H](C)[C@H](CN(C)C(=O)Nc2ccc(F)cc2)O3)cc1,inactive: 1.23%
10,Cc1ccc(S(=O)(=O)Nc2ccc3c(c2)C(=O)N([C@H](C)CO)C[C@@H](C)[C@H](CN(C)S(=O)(=O)c2ccccc2)OCCCC[C@@H](C)O3)cc1,inactive: 2.98%
11,O=C(Nc1ccc(C(F)(F)F)cc1)N[C@H]1C=C[C@H](CC(=O)N2CCCCC2)O[C@H]1CO,inactive: -3.68%
12,COCC(=O)N1CC2(CN(Cc3ccccc3Cl)C2)c2c([nH]c3cc(OC)ccc23)[C@@H]1CO,inactive: 2.48%
13,COc1cc(CN2CCC(C(=O)NC(c3ccc(F)cc3)c3ncccc3C)CC2)cc(OC)c1 (centres undefined),inconclusive: 43.8%
14,NNc1nnc2c3cc(F)ccc3n(CCc3ccccc3)c2n1,inconclusive: 38.2%
15,COCC#Cc1ccc2c(c1)O[C@@H](CN(C)C(=O)NC(C)C)[C@@H](C)CN([C@@H](C)CO)S2(=O)=O,inconclusive: 42.1%
16,C[C@H]1CN([C@@H](C)CO)C(=O)CCCn2nncc2CO[C@@H]1CN(C)Cc1cccc(C(=O)O)c1,inconclusive: 34.5%
17,CCOc1ccc(Oc2ccc(S(=O)(=O)N3CCOCC3)cc2NC(=O)C2=COCCO2)cc1,inconclusive: 37.6%
18,CC1CCCC(NC(=O)COC(=O)c2ccc(Cl)nc2)C1C (centres undefined),inconclusive: 24.6%
19,CC(C)OC(=O)N(C)C[C@H]1OCc2cnnn2CCCC(=O)N([C@@H](C)CO)C[C@H]1C,inconclusive: 57.7%

# Some of the entries so far, bar-delimited:
row | SMILES | CPE inhibition
4 | COc1ccc(S(=O)(=O)Nc2ccc3c(c2)C(=O)N([C@H](C)CO)C[C@H](C)[C@@H](CN(C)C(=O)Nc2ccccc2)OCCCC[C@@H](C)O3)cc1 | inconclusive: 20.7%
8 | COc1cc(SC)ccc1C(=O)Nc1cccc(S(=O)(=O)NC2=NCCC2)c1 | inconclusive: 43.2%
15 | COCC#Cc1ccc2c(c1)O[C@@H](CN(C)C(=O)NC(C)C)[C@@H](C)CN([C@@H](C)CO)S2(=O)=O | inconclusive: 42.1%
16 | C[C@H]1CN([C@@H](C)CO)C(=O)CCCn2nncc2CO[C@@H]1CN(C)Cc1cccc(C(=O)O)c1 | inconclusive: 34.5%
